The source of these data is publication PMC4873228.

These are yes or no findings as the source states them, for the method shown. Binding seen in cells or lysates may run through a third protein. Binding calls can cover weak binding; strength is not graded here. Tags and fused reporters may be left off the sequences shown.

In this experiment the target is T1, UBR::GFP (UBR domain of Ubr3, aa 222-292, with GFP at the carboxyl terminus) (Drosophila) (UniProt Q9W3M3).
T1 sequence: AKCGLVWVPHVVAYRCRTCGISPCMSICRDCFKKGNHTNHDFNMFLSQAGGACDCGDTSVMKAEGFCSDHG
The experiment in a line: co-IP; S2 cells co-transfected with HA::Cos2 or its deletion constructs and GFP, UBR::GFP or Ubr3::GFP; lysate precipitated with anti-GFP agarose overnight at 4°C, blot anti-HA and anti-GFP; lysis buffer 25 mM Tris-HCl pH 7.5, 150 mM NaCl, 1 mM EDTA, 1% NP-40; Ubr3::GFP with HA::Cos2 also after Colchicine (1 ug/ml, 5 hours; interaction not affected) and with co-transfected Hh (interaction strongly increased).
In the case of “HA::Cos2ΔN1 (Drosophila) (domain or fragment)”, the binding entry is “no binding”.

In the case of “HA::Cos2ΔC2 (Drosophila) (domain or fragment)”, the binding result is “binds”.

For “HA::Cos2ΔC3 (Drosophila) (domain or fragment)”, the binding entry is recorded as “binds”.

As to “HA::Cos2ΔC1 (Drosophila) (domain or fragment)”, the binding entry is listed as “binds”.

As for “HA::Cos2ΔN2 (Drosophila) (domain or fragment)”, the binding result is on record as “no binding”.
